Test results as given in publication PMC7181607.

Amino acid sequences for entries named in this document (tags omitted). A change or cut given only in a name is not applied to a line headed by its entry.
UniProt P01583: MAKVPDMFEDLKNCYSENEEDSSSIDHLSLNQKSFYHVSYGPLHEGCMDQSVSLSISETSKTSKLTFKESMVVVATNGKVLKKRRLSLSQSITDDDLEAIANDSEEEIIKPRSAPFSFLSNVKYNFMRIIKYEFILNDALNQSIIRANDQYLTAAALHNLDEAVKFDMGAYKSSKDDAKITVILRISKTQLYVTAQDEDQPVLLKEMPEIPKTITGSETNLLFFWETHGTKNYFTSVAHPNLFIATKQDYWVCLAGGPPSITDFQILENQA

Tests used:
EGFP-tagged p53 [1] = target: EGFP-tagged p53 (UniProt P04637); assay: co-IP; U2OS cells co-expressing IL-1α/Flag with p53/EGFP or with EGFP; precipitation with GFP-Trap agarose beads (ChromoTek)
EGFP-tagged p53 [2] = target: EGFP-tagged p53 (UniProt P04637); assay: co-IP; A375 cells co-transfected with IL-1α/Flag and p53/EGFP, lysed 24 h after transfection; IP with anti-GFP antibody on protein G-agarose, overnight at 4 °C; IL-1α/Flag detected with anti-Flag antibody
[3] = target: Flag-tagged full-length IL-1α (UniProt P01583); assay: co-IP; Mrc-5 cells co-transfected with p53/EGFP and IL-1α/Flag; IP with anti-Flag antibody on protein G-agarose, overnight at 4 °C; p53/EGFP detected with anti-p53 antibody
[4] = target: endogenous p53 (human (endogenous in U2OS, A375, HeLa)) (UniProt P04637); assay: proximity ligation; Duolink in situ PLA in fixed U2OS cells transfected with IL-1α/EGFP or IL-1αNTP/EGFP; anti-GFP and anti-p53 (CM-1) antibodies; IL-1α/EGFP cells treated with 20 μM roscovitine for 24 hours
[5] = target: endogenous p53 (human (endogenous in U2OS, A375, HeLa)) (UniProt P04637); assay: proximity ligation; Duolink in situ PLA of endogenous proteins in fixed A375, HeLa and U2OS cells; mouse anti-IL-1α (I7409) and rabbit anti-p53 (CM-1) antibodies; cells untreated or treated with 10 µg/ml etoposide for two hours
[6] = target: endogenous p53 (human (endogenous in U2OS, A375, HeLa)) (UniProt P04637); assay: co-IP; endogenous proteins, U2OS (and A375) cells treated with etoposide (10 µg/ml, 2 hours); IP with anti-p53 antibody CM-1; IL-1α detected by western blotting
[7] = target: endogenous p53 (human (endogenous in U2OS, A375, HeLa)) (UniProt P04637); assay: co-IP; endogenous proteins, untreated U2OS cells; IP with anti-p53 antibody CM-1; IL-1α detected by western blotting

Question: With “Flag-tagged full-length IL-1α (from UniProt P01583)” as the substance, how does the binding (EGFP-tagged p53 [1]) read?
Answer: The binding was “binds”.

Question: What about the binding (EGFP-tagged p53 [2]) of the same substance?
Answer: Its binding is “binds”.

Question: How did the binding [3] turn out when “EGFP-tagged p53 (from UniProt P04637 1-393)” was run?
Answer: The binding was “binds”.

Question: With “full-length IL-1α/EGFP fusion protein (from UniProt P01583)” as the substance, how does the binding [4] read?
Answer: The binding was “binds”.

Question: With endogenous IL-1α (from UniProt P01583) as the substance, how does the binding [5] read?
Answer: The binding was “binds”.

Question: What about the binding [6] of the same substance?
Answer: The binding was “binds”.

Question: What about the binding [7] of the same substance?
Answer: Its binding is “binds weakly”.

These are yes or no findings as the source states them, for the method shown. In cells and extracts the contact can be indirect. Binding calls can cover weak binding; strength is not graded here.
